Source: the supplement of paper PMC12823440, “Inhibitors supercharge kinase turnover through native proteolytic circuits” (Nature, 2025)
This is one part of the list. Hit calls seldom repeat between salt and free forms of one compound.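 In K562 cells expressing nanoluciferase-fused kinases, luminescence was recorded at 4 h intervals between 2 and 18 h, normalized as percent of control with DMSO at 100% and a positive control at 0%. A significant (2 sigma) signal drop marks a time point as decreased. The authors' rule for a hit is not shown and takes in more than the number of time points.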

The chains behind the UniProt entries cited, without tags or fusion partners. Where a name states a change or a piece, a line headed by the entry shows the natural chain unless it says otherwise.
UniProt Q9Y616: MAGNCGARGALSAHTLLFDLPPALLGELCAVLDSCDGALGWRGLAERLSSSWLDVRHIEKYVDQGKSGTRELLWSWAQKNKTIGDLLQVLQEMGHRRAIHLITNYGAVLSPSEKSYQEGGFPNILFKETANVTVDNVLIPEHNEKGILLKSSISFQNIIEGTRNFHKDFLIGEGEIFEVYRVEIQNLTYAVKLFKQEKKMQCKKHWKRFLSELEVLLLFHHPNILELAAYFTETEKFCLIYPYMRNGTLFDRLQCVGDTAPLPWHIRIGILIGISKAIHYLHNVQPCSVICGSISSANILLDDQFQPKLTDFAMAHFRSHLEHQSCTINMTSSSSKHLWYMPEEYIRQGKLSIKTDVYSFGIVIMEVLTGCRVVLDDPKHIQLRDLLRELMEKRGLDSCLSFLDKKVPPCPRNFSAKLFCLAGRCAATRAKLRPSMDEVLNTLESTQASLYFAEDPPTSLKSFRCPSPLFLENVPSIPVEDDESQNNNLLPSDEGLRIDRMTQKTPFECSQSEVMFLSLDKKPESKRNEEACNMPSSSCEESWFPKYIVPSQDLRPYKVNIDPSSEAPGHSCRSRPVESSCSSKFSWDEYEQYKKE
UniProt P23458: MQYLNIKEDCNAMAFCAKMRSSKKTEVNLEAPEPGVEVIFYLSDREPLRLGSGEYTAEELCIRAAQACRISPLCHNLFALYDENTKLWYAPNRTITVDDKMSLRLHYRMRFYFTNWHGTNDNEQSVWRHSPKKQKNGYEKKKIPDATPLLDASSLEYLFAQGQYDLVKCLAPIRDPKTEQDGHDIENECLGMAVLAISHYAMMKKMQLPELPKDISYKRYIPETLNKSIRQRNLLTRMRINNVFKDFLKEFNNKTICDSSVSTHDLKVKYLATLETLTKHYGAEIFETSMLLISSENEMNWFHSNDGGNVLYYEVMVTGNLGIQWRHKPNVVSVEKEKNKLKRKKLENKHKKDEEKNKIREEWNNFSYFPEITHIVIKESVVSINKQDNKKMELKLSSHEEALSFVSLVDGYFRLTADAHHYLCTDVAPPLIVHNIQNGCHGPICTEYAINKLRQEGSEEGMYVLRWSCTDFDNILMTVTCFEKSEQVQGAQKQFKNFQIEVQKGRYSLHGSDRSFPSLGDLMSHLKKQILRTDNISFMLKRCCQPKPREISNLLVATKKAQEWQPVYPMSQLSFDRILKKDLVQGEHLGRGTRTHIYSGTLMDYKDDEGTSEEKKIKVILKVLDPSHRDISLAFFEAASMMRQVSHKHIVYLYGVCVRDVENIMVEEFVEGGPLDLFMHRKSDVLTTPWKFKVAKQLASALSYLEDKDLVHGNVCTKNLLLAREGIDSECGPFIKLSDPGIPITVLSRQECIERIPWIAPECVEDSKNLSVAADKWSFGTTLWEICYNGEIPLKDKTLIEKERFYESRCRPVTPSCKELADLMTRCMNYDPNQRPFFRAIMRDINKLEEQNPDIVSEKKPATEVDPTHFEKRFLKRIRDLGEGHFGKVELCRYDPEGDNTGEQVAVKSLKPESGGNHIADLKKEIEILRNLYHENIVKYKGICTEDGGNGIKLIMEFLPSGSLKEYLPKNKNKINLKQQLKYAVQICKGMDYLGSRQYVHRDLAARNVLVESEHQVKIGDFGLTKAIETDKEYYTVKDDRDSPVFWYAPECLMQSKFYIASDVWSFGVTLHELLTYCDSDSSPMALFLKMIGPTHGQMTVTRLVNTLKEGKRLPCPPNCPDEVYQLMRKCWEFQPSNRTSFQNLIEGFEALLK
UniProt P06239: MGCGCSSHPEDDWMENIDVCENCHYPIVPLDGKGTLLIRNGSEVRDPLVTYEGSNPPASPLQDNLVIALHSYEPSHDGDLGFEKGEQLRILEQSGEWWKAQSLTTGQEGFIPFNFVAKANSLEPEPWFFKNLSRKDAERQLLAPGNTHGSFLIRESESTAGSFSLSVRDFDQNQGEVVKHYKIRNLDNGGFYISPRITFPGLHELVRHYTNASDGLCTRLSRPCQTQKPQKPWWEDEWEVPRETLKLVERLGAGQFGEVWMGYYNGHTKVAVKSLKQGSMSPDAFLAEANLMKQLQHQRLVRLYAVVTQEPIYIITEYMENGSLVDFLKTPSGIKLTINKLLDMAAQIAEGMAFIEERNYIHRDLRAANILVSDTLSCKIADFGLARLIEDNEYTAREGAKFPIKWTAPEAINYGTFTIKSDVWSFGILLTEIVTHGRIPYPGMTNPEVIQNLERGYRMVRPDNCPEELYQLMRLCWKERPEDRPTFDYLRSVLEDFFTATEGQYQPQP
UniProt P53667: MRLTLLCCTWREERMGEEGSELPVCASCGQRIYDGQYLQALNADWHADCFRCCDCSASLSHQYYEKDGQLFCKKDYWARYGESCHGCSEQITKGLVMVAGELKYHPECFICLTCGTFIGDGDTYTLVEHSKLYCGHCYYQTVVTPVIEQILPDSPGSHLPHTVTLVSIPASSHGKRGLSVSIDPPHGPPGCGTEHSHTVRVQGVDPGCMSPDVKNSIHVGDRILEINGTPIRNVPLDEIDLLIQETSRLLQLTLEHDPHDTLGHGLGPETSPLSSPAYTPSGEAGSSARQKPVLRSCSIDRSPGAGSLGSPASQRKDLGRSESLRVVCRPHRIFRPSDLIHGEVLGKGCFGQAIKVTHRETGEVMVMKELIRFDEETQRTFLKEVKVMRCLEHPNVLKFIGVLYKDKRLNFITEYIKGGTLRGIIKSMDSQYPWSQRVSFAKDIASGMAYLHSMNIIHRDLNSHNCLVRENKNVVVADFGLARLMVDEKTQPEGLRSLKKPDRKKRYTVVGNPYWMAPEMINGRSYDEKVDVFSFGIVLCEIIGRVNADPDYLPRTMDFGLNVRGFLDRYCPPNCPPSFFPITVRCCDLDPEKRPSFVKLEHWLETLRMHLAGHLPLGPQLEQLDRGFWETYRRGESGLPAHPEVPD
UniProt P53671: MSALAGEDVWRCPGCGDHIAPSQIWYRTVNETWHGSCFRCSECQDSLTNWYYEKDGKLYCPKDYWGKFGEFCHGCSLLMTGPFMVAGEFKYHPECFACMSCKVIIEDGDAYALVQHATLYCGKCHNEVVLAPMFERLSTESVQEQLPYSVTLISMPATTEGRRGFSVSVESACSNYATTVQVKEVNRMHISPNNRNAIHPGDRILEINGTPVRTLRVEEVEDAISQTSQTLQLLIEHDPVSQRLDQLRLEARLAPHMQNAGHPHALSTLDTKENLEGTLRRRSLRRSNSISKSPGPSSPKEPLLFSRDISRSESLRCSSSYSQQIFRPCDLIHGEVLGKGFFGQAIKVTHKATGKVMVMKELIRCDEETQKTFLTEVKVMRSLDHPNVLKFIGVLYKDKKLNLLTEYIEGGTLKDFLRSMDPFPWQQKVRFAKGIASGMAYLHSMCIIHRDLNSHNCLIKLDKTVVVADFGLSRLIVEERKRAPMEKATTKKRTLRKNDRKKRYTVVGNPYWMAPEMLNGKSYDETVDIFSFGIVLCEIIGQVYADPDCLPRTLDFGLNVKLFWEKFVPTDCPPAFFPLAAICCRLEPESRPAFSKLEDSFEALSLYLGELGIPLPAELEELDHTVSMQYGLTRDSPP
UniProt P28482, whole entry: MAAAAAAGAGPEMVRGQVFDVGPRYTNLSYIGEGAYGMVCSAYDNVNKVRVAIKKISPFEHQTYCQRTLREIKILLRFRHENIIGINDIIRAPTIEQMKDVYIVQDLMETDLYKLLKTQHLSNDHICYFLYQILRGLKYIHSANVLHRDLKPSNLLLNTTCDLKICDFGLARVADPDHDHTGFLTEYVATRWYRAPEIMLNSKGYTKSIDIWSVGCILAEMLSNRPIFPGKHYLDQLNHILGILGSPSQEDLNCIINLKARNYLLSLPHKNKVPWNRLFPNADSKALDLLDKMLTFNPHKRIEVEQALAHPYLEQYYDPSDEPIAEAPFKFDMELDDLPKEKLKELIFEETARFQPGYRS
UniProt P49137, whole entry, looked up: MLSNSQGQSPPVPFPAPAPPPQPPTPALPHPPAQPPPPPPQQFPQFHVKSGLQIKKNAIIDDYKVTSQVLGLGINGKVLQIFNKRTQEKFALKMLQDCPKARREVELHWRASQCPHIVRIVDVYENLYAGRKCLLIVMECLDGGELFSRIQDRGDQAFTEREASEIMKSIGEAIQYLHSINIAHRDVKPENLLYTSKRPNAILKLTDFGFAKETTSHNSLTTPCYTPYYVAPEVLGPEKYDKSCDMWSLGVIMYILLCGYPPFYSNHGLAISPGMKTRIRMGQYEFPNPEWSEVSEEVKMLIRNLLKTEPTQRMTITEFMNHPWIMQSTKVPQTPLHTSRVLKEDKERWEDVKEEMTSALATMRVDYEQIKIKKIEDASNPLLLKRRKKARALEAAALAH
UniProt Q16288, whole entry, looked up: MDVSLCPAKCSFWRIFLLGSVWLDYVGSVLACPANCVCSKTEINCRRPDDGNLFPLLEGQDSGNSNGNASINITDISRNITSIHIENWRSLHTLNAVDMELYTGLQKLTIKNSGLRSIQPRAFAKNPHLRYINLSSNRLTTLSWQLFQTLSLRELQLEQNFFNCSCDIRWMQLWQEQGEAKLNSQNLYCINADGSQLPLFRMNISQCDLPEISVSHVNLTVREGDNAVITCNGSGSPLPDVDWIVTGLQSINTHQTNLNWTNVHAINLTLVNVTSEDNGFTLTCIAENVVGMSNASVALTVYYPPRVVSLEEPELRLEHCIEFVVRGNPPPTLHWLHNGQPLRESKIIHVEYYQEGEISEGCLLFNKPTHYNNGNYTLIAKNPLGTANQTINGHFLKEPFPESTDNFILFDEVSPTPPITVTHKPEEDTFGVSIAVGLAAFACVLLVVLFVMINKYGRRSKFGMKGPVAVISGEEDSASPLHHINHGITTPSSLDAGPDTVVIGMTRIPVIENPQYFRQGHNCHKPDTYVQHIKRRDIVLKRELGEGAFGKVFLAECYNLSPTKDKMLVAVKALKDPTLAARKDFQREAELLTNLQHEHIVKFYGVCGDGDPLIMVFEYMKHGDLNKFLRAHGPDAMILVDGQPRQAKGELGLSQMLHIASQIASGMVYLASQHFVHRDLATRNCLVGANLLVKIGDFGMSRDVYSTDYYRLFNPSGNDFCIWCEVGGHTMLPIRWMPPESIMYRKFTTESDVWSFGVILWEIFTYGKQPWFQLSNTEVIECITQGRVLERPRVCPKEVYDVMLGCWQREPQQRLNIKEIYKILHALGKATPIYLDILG
UniProt Q96KB5: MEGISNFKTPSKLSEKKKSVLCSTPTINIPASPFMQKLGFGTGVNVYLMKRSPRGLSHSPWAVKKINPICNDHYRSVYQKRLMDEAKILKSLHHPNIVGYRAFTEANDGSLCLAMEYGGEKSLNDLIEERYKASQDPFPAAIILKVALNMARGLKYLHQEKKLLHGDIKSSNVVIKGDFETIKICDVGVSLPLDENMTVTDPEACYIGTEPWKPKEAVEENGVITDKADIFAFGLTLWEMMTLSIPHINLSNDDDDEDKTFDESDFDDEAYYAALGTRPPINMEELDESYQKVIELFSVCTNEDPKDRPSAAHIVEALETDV
UniProt P09619, whole entry: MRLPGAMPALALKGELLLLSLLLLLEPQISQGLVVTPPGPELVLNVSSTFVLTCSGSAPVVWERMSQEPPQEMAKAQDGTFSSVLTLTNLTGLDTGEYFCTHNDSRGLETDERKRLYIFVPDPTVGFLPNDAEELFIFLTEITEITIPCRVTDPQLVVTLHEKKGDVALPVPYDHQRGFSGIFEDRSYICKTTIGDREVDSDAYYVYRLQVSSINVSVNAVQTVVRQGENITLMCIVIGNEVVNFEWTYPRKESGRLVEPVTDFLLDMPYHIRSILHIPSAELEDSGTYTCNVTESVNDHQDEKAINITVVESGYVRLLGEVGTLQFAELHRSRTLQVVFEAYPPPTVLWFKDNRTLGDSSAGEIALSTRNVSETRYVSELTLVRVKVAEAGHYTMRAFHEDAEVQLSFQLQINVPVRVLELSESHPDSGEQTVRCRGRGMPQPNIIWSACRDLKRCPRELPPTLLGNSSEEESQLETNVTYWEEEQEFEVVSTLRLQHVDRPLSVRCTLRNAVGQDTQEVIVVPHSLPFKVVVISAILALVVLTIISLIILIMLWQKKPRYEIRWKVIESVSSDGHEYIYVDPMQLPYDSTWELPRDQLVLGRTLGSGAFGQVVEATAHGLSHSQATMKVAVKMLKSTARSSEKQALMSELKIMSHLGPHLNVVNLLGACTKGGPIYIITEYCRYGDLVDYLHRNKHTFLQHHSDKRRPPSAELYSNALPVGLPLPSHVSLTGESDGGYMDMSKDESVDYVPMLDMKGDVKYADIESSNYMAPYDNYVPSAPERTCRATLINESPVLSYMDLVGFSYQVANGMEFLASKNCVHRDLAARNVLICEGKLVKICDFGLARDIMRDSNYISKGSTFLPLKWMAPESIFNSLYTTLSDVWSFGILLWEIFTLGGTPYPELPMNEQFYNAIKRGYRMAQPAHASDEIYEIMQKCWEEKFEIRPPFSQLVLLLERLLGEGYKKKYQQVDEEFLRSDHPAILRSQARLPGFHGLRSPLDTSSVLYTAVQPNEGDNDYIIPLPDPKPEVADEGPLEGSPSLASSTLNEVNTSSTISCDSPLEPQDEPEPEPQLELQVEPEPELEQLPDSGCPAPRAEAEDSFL

How the values were obtained:
Experiment in all cases: kinase-Nluc reporter destabilization hit call (1 = scored as downregulated) (binary); higher = compound decreases kinase abundance
Conditions in all cases: K562; 2-18 h
IRAK3 = IRAK3 (UniProt Q9Y616)
JAK1 = JAK1 (UniProt P23458)
LCK = LCK (UniProt P06239)
LIMK1 = LIMK1 (UniProt P53667)
LIMK2 = LIMK2 (UniProt P53671)
LMTK2 = LMTK2 (UniProt Q8IWU2)
LYN = LYN (UniProt P07948)
MAP2K1 = MAP2K1 (UniProt Q02750)
MAP2K2 = MAP2K2 (UniProt P36507)
MAP4K2 = MAP4K2 (UniProt Q12851)
MAPK1 = MAPK1 (UniProt P28482)
MAPK4 = MAPK4 (UniProt P31152)
MAPKAPK2 = MAPKAPK2 (UniProt P49137)
MKNK1 = MKNK1 (UniProt Q9BUB5)
NTRK2 = NTRK2 (UniProt Q16620)
NTRK3 = NTRK3 (UniProt Q16288)
PAK4 = PAK4 (UniProt O96013)
PBK = PBK (UniProt Q96KB5)
PDGFRB = PDGFRB (UniProt P09619)
PDK1 = PDK1 (UniProt Q15118)

Measured: kinase-Nluc reporter destabilization hit call

CCOc1cc(=O)[nH]cc1-c1ccc(CC(=O)Nc2cc(C(C)(C)C(F)(F)F)on2)c(F)c1 (10 µM)
inactive: IRAK3 = 0 | JAK1 = 0 | LCK 0 | LIMK1 = 0 | LIMK2 = 0 | LMTK2 = 0 | LYN 0 | MAP2K1 = 0 | MAP2K2 = 0 | MAP4K2 = 0 | MAPK1 = 0 | MAPK4 = 0 | MAPKAPK2 = 0 | MKNK1 = 0 | NTRK2 = 0 | NTRK3 = 0 | PAK4 = 0 | PBK 0 | PDGFRB 0 | PDK1 = 0

O=C(O)/C=C(\CCc1ccc(Cl)cc1)c1ccccc1 (10 µM)
inactive: IRAK3 = 0 | JAK1 = 0 | LCK 0 | LIMK1 = 0 | LIMK2 = 0 | LMTK2 = 0 | LYN 0 | MAP2K1 = 0 | MAP2K2 = 0 | MAP4K2 = 0 | MAPK1 = 0 | MAPK4 = 0 | MAPKAPK2 = 0 | MKNK1 = 0 | NTRK2 = 0 | NTRK3 = 0 | PAK4 = 0 | PBK 0 | PDGFRB 0 | PDK1 = 0

Fc1ccc(-c2nc3n(c2-c2ccncc2)CCS3)cc1 (10 µM)
inactive: IRAK3 = 0 | JAK1 = 0 | LCK 0 | LIMK1 = 0 | LIMK2 = 0 | LMTK2 = 0 | LYN 0 | MAP2K1 = 0 | MAP2K2 = 0 | MAP4K2 = 0 | MAPK1 = 0 | MAPK4 = 0 | MAPKAPK2 = 0 | MKNK1 = 0 | NTRK3 = 0 | PAK4 = 0 | PBK 0 | PDGFRB 0 | PDK1 = 0

NC(=O)c1sc2c([N+](=O)[O-])cc(C(F)(F)F)cc2[n+]1[O-] [Cyclapolin 9] (10 µM)
inactive: IRAK3 = 0 | JAK1 = 0 | LCK 0 | LIMK1 = 0 | LIMK2 = 0 | LMTK2 = 0 | LYN 0 | MAP2K1 = 0 | MAP2K2 = 0 | MAP4K2 = 0 | MAPK1 = 0 | MAPK4 = 0 | MAPKAPK2 = 0 | MKNK1 = 0 | NTRK2 = 0 | NTRK3 = 0 | PAK4 = 0 | PBK 0 | PDGFRB 0 | PDK1 = 0

Nc1ccc(-c2nc3ccc(-c4nc5ccc(N)cc5[nH]4)cc3[nH]2)cc1 (10 µM)
inactive: IRAK3 = 0 | JAK1 = 0 | LCK 0 | LIMK1 = 0 | LIMK2 = 0 | LMTK2 = 0 | LYN 0 | MAP2K1 = 0 | MAP2K2 = 0 | MAP4K2 = 0 | MAPK1 = 0 | MAPK4 = 0 | MAPKAPK2 = 0 | MKNK1 = 0 | NTRK2 = 0 | NTRK3 = 0 | PAK4 = 0 | PBK 0 | PDGFRB 0 | PDK1 = 0

CCOC(=O)c1c(N2CCc3ccc(OC)cc3C2)oc(C=C2C=Nc3ncccc32)c1O (10 µM)
inactive: IRAK3 = 0 | JAK1 = 0 | LCK 0 | LIMK1 = 0 | LIMK2 = 0 | LMTK2 = 0 | LYN 0 | MAP2K1 = 0 | MAP2K2 = 0 | MAP4K2 = 0 | MAPK1 = 0 | MAPK4 = 0 | MAPKAPK2 = 0 | MKNK1 = 0 | NTRK3 = 0 | PAK4 = 0 | PBK 0 | PDGFRB 0 | PDK1 = 0

A draw from above in order of number of heavy atoms, low to high:
NC(=O)c1sc2c([N+](=O)[O-])cc(C(F)(F)F)cc2[n+]1[O-] [Cyclapolin 9] (10 µM)
inactive: IRAK3 = 0 | JAK1 = 0 | LCK 0 | LIMK1 = 0 | LIMK2 = 0 | LMTK2 = 0 | LYN 0 | MAP2K1 = 0 | MAP2K2 = 0 | MAP4K2 = 0 | MAPK1 = 0 | MAPK4 = 0 | MAPKAPK2 = 0 | MKNK1 = 0 | NTRK2 = 0 | NTRK3 = 0 | PAK4 = 0 | PBK 0 | PDGFRB 0 | PDK1 = 0

Fc1ccc(-c2nc3n(c2-c2ccncc2)CCS3)cc1 (10 µM)
inactive: IRAK3 = 0 | JAK1 = 0 | LCK 0 | LIMK1 = 0 | LIMK2 = 0 | LMTK2 = 0 | LYN 0 | MAP2K1 = 0 | MAP2K2 = 0 | MAP4K2 = 0 | MAPK1 = 0 | MAPK4 = 0 | MAPKAPK2 = 0 | MKNK1 = 0 | NTRK3 = 0 | PAK4 = 0 | PBK 0 | PDGFRB 0 | PDK1 = 0

CCOC(=O)c1c(N2CCc3ccc(OC)cc3C2)oc(C=C2C=Nc3ncccc32)c1O (10 µM)
inactive: IRAK3 = 0 | JAK1 = 0 | LCK 0 | LIMK1 = 0 | LIMK2 = 0 | LMTK2 = 0 | LYN 0 | MAP2K1 = 0 | MAP2K2 = 0 | MAP4K2 = 0 | MAPK1 = 0 | MAPK4 = 0 | MAPKAPK2 = 0 | MKNK1 = 0 | NTRK3 = 0 | PAK4 = 0 | PBK 0 | PDGFRB 0 | PDK1 = 0

(listing goes on)

Nc1ccc(-c2cccc(C(=O)Nc3cnc4nc(N5CCOCC5)oc4c3)n2)cn1 (10 µM)
inactive: IRAK3 = 0 | JAK1 = 0 | LCK 0 | LIMK1 = 0 | LIMK2 = 0 | LMTK2 = 0 | LYN 0 | MAP2K1 = 0 | MAP2K2 = 0 | MAP4K2 = 0 | MAPK1 = 0 | MAPK4 = 0 | MAPKAPK2 = 0 | MKNK1 = 0 | NTRK2 = 0 | NTRK3 = 0 | PAK4 = 0 | PBK 0 | PDGFRB 0 | PDK1 = 0

N#Cc1cc(N2CCC(C(=O)N3N=CC[C@H]3c3cc(F)cc(F)c3)CC2)ncn1 (10 µM)
inactive: IRAK3 = 0 | JAK1 = 0 | LCK 0 | LIMK1 = 0 | LIMK2 = 0 | LMTK2 = 0 | LYN 0 | MAP2K1 = 0 | MAP2K2 = 0 | MAP4K2 = 0 | MAPK1 = 0 | MAPK4 = 0 | MAPKAPK2 = 0 | MKNK1 = 0 | NTRK2 = 0 | NTRK3 = 0 | PAK4 = 0 | PBK 0 | PDGFRB 0 | PDK1 = 0

CC(C)n1cnc2c(Nc3cccc(Cl)c3)nc(N[C@H]3CCCC[C@@H]3N)nc21 (2.5 µM)
inactive: IRAK3 = 0 | JAK1 = 0 | LCK 0 | LIMK1 = 0 | LIMK2 = 0 | LMTK2 = 0 | LYN 0 | MAP2K1 = 0 | MAP2K2 = 0 | MAP4K2 = 0 | MAPK1 = 0 | MAPK4 = 0 | MAPKAPK2 = 0 | MKNK1 = 0 | NTRK2 = 0 | NTRK3 = 0 | PAK4 = 0 | PBK 0 | PDGFRB 0 | PDK1 = 0

CN1CCN(c2ccc(-c3ccncc3-c3cc(F)c(O)c(F)c3)cc2)CC1 (10 µM)
inactive: IRAK3 = 0 | JAK1 = 0 | LCK 0 | LIMK1 = 0 | LIMK2 = 0 | LMTK2 = 0 | LYN 0 | MAP2K1 = 0 | MAP2K2 = 0 | MAP4K2 = 0 | MAPK1 = 0 | MAPK4 = 0 | MAPKAPK2 = 0 | MKNK1 = 0 | NTRK2 = 0 | NTRK3 = 0 | PAK4 = 0 | PBK 0 | PDGFRB 0 | PDK1 = 0

COc1ccc(Br)c(C=O)c1O [6-Bromo-2-hydroxy-3-methoxybenzaldehyde] (10 µM)
inactive: IRAK3 = 0 | JAK1 = 0 | LCK 0 | LIMK1 = 0 | LIMK2 = 0 | LMTK2 = 0 | LYN 0 | MAP2K1 = 0 | MAP2K2 = 0 | MAP4K2 = 0 | MAPK1 = 0 | MAPK4 = 0 | MAPKAPK2 = 0 | MKNK1 = 0 | NTRK2 = 0 | NTRK3 = 0 | PAK4 = 0 | PBK 0 | PDGFRB 0 | PDK1 = 0

CO[C@@H]1[C@H](N(C)C(=O)c2ccccc2)C[C@H]2O[C@]1(C)n1c3ccccc3c3c4c(c5c6ccccc6n2c5c31)C(=O)NC4 [Midostaurin] (2.5 µM)
inactive: IRAK3 = 0 | JAK1 = 0 | LCK 0 | LIMK1 = 0 | LIMK2 = 0 | LMTK2 = 0 | LYN 0 | MAP2K1 = 0 | MAP2K2 = 0 | MAP4K2 = 0 | MAPK1 = 0 | MAPK4 = 0 | MAPKAPK2 = 0 | MKNK1 = 0 | NTRK2 = 0 | PAK4 = 0 | PBK 0 | PDGFRB 0 | PDK1 = 0

Cc1nc(NC(=O)N2CCC[C@H]2C(N)=O)sc1-c1ccnc(C(C)(C)C(F)(F)F)c1 [Alpelisib] (2.5 µM)
inactive: IRAK3 = 0 | JAK1 = 0 | LCK 0 | LIMK1 = 0 | LIMK2 = 0 | LMTK2 = 0 | LYN 0 | MAP2K1 = 0 | MAP2K2 = 0 | MAP4K2 = 0 | MAPK1 = 0 | MAPK4 = 0 | MAPKAPK2 = 0 | MKNK1 = 0 | NTRK2 = 0 | NTRK3 = 0 | PAK4 = 0 | PBK 0 | PDGFRB 0 | PDK1 = 0

Cc1ccc(Nc2cc(N[C@@H]3CCCC[C@@H]3N)nnc2C(N)=O)nc1C (2 µM)
inactive: IRAK3 = 0 | JAK1 = 0 | LCK 0 | LIMK1 = 0 | LIMK2 = 0 | LMTK2 = 0 | LYN 0 | MAP2K1 = 0 | MAP2K2 = 0 | MAP4K2 = 0 | MAPK1 = 0 | MAPK4 = 0 | MAPKAPK2 = 0 | MKNK1 = 0 | NTRK2 = 0 | NTRK3 = 0 | PAK4 = 0 | PBK 0 | PDGFRB 0 | PDK1 = 0

O=C(C#Cc1ccccc1)c1cccc([N+](=O)[O-])c1 (10 µM)
inactive: IRAK3 = 0 | JAK1 = 0 | LCK 0 | LIMK1 = 0 | LIMK2 = 0 | LMTK2 = 0 | LYN 0 | MAP2K1 = 0 | MAP2K2 = 0 | MAP4K2 = 0 | MAPK1 = 0 | MAPK4 = 0 | MAPKAPK2 = 0 | MKNK1 = 0 | NTRK2 = 0 | NTRK3 = 0 | PAK4 = 0 | PBK 0 | PDGFRB 0 | PDK1 = 0

CN1CCC(Nc2ccc(C(=O)Nc3cc(-c4ccc5c(c4)OCO5)[nH]n3)cc2)CC1 (10 µM)
inactive: IRAK3 = 0 | JAK1 = 0 | LCK 0 | LIMK1 = 0 | LIMK2 = 0 | LMTK2 = 0 | LYN 0 | MAP2K1 = 0 | MAP2K2 = 0 | MAP4K2 = 0 | MAPK1 = 0 | MAPK4 = 0 | MAPKAPK2 = 0 | MKNK1 = 0 | NTRK2 = 0 | PAK4 = 0 | PBK 0 | PDGFRB 0 | PDK1 = 0

COc1ccc2nc3ccc(OC)cc3c(SCCCN)c2c1 (10 µM)
inactive: IRAK3 = 0 | JAK1 = 0 | LCK 0 | LIMK1 = 0 | LIMK2 = 0 | LMTK2 = 0 | LYN 0 | MAP2K1 = 0 | MAP2K2 = 0 | MAP4K2 = 0 | MAPK1 = 0 | MAPK4 = 0 | MAPKAPK2 = 0 | MKNK1 = 0 | NTRK2 = 0 | NTRK3 = 0 | PAK4 = 0 | PBK 0 | PDGFRB 0 | PDK1 = 0

CCCCNc1ncc2c(-c3ccc(F)cc3)nn(CC3CCC(N)CC3)c2n1 (stereo not given) (2.5 µM)
inactive: IRAK3 = 0 | JAK1 = 0 | LCK 0 | LIMK1 = 0 | LIMK2 = 0 | LMTK2 = 0 | LYN 0 | MAP2K1 = 0 | MAP2K2 = 0 | MAP4K2 = 0 | MAPK1 = 0 | MAPK4 = 0 | MAPKAPK2 = 0 | MKNK1 = 0 | NTRK3 = 0 | PAK4 = 0 | PBK 0 | PDGFRB 0 | PDK1 = 0
